Source: patent US12723053B2, “KRas inhibitors” (ELI LILLY AND COMPANY, priority 2023, dated 2026)
pIC50: −log10 of the molar value. Some results were stated once for a whole list of compounds, not compound by compound.

Molecular target: T1, KRas G12D mutant (Homo sapiens, UniProt P01116, G12D)
T1 construct: host or cells: PANC-1 human pancreatic ductal adenocarcinoma cells
Assay: PANC-1 Cellular Active RAS GTPase ELISA (KRas G12D Mutation)
Assay type: cell-based
Conditions: PANC-1 cells, 2 hours incubation; read-out: relative IC50, inhibition of constitutive RAS GTPase activity (KRas G12D mutant)

Structure (SMILES) | pIC50
C[C@@H](O)CN1CC2CCC(C1)N2c1nc(OCC2(CN3CCCOCC3)CC2)nc2c(F)c(-c3ncc(F)c4sc(N)c(C#N)c34)c3c(c12)COC3 [Example 1B, 4-(3-((1-((1,4-Oxazepan-4-yl)methyl)cyclopropyl)meth-oxy)-5-fluoro-1-(3-((R)-2-hydroxypropyl)-3,8-diazabicyclo[3.2.1]octan-8-yl)-7,9-dihydrofuro[3,4-f]quinazolin-6-yl)-2-amino-7-fluorothieno[3,2-c]pyridine-3-carbonitrile] | > 7.00

Same assay, conditions: PANC-1 vs MKN-45 Cellular Active RAS GTPase ELISA

Structure (SMILES) | selective inhibition preference for KRas G12D mutant over KRas wild-type
CO[C@@H]1CCN(CC2(COc3nc(N4C5CCC4CN(C[C@@H](C)O)C5)c4c5c(c(-c6ncc(F)c7sc(N)c(C#N)c67)c(F)c4n3)COC5)CC2)C1 [Example 3A, 2-Amino-7-fluoro-4-(5-fluoro-1-(3-((R)-2-hydroxypropyl)-3,8-diazabicyclo[3.2.1]octan-8-yl)-3-((1-(((R)-3-methoxypyrrolidin-1-yl)methyl)cyclopropyl)meth-oxy)-7,9-dihydrofuro[3,4-f]quinazolin-6-yl)thieno[3,2-c]pyridine-3-carbonitrile] | greater than 10 fold
C[C@@H](O)CN1CC2CCC(C1)N2c1nc(OCC2(CN3CC4(COC4)C3)CC2)nc2c(F)c(-c3ncc(F)c4sc(N)c(C#N)c34)c3c(c12)COC3 [Example 4A, 4-(3-((1-((2-Oxa-6-azaspiro[3.3]heptan-6-yl)methyl)cyclopropyl)meth-oxy)-5-fluoro-1-(3-((R)-2-hydroxypropyl)-3,8-diazabicyclo[3.2.1]octan-8-yl)-7,9-dihydrofuro[3,4-f]quinazolin-6-yl)-2-amino-7-fluorothieno[3,2-c]pyridine-3-carbonitrile] | greater than 10 fold
COCCN1CC2CCC(C1)N2c1nc(OCC2(CN3CC(O)C3)CC2)nc2c(F)c(-c3ncc(F)c4sc(N)c(C#N)c34)c3c(c12)COC3 [Example 6A, 2-Amino-7-fluoro-4-(5-fluoro-3-((1-((3-hydroxyazetidin-1-yl)methyl)cyclopropyl)meth-oxy)-1-(3-(2-methoxyethyl)-3,8-diazabicyclo[3.2.1]octan-8-yl)-7,9-dihydrofuro[3,4-f]quinazolin-6-yl)thieno[3,2-c]pyridine-3-carbonitrile] | greater than 10 fold
C[C@@H](O)CN1CC2CCC(C1)N2c1nc(OCC2(CN3CCN(CC(F)(F)F)CC3)CC2)nc2c(F)c(-c3ncc(F)c4sc(N)c(C#N)c34)c3c(c12)COC3 [Example 7A, 2-Amino-7-fluoro-4-(5-fluoro-1-(3-((R)-2-hydroxypropyl)-3,8-diazabicyclo[3.2.1]octan-8-yl)-3-((1-((4-(2,2,2-trifluoroethyl)piperazin-1-yl)methyl)cyclopropyl)meth-oxy)-7,9-dihydrofuro[3,4-f]quinazolin-6-yl)thieno[3,2-c]pyridine-3-carbonitrile] | greater than 10 fold
C[C@@H](O)CN1CC2CCC(C1)N2c1nc(OCC2(CN3CCCC(F)C3)CC2)nc2c(F)c(-c3ncc(F)c4sc(N)c(C#N)c34)c3c(c12)COC3 (stereo partly drawn) [Example 9A, 2-Amino-7-fluoro-4-(5-fluoro-3-((1-((3-fluoropiperidin-1-yl)methyl)cyclopropyl)meth-oxy)-1-(3-((R)-2-hydroxypropyl)-3,8-diazabicyclo[3.2.1]octan-8-yl)-7,9-dihydrofuro[3,4-f]quinazolin-6-yl)thieno[3,2-c]pyridine-3-carbonitrile] | greater than 10 fold
C[C@@H](O)CN1CC2CCC(C1)N2c1nc(N2C[C@@H]3CCN(C)[C@@H]3C2)nc2c(F)c(-c3ncc(F)c4sc(N)c(C#N)c34)c3c(c12)COC3 [Example 13B, 2-Amino-7-fluoro-4-(5-fluoro-1-(3-((R)-2-hydroxypropyl)-3,8-diazabicyclo[3.2.1]octan-8-yl)-3-((3aS,6aS)-1-methylhexahydropyrrolo[3,4-b]pyrrol-5(1H)-yl)-7,9-dihydrofuro[3,4-f]quinazolin-6-yl)thieno[3,2-c]pyridine-3-carbonitrile] | greater than 10 fold
